Measurements taken from publication PMC6949491.
Results are given in words; binding and its absence hold for the method and conditions named. In cells and extracts the contact can be indirect. Some binding calls cover weakened binding; strength is not graded here. Values belong to the substance of their own block, whether it stands above or below them.

Amino acid sequences for entries named in this document (tags omitted). Residues count along the entry.
UniProt Q07113, residues 36-2483: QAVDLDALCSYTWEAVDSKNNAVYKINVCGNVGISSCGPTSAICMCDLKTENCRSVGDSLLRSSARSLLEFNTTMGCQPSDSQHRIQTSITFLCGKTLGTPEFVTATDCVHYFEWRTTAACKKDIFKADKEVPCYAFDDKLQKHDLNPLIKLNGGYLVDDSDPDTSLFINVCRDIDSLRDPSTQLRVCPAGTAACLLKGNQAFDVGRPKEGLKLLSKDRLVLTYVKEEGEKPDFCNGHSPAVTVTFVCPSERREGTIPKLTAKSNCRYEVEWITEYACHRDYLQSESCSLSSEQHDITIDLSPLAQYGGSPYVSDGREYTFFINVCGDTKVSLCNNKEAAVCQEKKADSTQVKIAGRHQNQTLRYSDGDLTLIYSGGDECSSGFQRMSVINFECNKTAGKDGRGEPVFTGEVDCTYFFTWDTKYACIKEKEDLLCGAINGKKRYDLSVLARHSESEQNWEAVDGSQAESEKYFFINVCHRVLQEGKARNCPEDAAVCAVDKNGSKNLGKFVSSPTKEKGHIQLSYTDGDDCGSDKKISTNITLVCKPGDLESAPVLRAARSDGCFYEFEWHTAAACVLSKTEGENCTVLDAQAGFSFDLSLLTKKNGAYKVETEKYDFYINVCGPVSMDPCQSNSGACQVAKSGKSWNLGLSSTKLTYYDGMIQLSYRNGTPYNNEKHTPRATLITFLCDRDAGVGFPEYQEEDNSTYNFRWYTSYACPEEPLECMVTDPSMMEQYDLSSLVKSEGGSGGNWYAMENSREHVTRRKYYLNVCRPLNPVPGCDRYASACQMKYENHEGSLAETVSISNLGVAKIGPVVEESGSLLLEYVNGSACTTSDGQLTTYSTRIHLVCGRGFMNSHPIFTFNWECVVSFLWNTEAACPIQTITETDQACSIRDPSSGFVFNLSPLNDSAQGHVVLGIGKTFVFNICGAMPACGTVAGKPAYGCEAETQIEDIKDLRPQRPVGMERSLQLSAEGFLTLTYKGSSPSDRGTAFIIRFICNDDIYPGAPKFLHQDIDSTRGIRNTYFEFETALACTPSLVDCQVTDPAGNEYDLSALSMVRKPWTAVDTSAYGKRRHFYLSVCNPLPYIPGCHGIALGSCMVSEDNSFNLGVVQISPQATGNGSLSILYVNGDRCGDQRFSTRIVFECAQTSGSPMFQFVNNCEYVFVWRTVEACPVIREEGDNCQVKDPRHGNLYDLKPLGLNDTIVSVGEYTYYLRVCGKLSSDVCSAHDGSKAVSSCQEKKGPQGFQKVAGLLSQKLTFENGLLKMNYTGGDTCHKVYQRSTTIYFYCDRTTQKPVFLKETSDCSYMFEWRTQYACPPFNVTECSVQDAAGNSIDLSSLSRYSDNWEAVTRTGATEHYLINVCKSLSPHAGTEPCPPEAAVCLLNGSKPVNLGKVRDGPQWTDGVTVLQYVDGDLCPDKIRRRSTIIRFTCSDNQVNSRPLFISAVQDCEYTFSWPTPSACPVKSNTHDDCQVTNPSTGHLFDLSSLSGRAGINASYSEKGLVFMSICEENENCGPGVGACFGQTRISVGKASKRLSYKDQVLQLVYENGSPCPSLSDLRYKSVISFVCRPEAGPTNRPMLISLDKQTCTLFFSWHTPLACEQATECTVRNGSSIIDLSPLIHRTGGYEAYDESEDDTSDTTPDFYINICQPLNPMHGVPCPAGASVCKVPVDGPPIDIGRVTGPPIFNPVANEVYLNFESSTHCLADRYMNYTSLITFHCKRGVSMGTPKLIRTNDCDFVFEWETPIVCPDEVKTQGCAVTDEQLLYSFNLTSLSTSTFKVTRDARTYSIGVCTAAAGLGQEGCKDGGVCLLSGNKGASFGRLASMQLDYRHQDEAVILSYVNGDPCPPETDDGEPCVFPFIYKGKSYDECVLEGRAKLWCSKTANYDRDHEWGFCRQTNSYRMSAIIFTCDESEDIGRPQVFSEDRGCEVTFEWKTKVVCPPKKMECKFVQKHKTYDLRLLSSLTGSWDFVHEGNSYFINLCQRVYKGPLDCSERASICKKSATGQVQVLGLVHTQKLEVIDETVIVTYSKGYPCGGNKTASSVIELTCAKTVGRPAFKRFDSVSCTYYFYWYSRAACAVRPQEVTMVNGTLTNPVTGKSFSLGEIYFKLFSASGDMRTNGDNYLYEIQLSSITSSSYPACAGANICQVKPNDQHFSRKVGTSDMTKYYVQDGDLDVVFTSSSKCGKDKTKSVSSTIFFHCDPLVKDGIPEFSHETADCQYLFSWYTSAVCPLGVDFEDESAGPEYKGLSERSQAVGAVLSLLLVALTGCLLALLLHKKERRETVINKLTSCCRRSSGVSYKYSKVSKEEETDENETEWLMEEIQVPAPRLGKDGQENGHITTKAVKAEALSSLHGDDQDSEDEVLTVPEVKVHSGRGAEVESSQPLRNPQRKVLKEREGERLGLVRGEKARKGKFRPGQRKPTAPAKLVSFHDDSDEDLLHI
UniProt P08752: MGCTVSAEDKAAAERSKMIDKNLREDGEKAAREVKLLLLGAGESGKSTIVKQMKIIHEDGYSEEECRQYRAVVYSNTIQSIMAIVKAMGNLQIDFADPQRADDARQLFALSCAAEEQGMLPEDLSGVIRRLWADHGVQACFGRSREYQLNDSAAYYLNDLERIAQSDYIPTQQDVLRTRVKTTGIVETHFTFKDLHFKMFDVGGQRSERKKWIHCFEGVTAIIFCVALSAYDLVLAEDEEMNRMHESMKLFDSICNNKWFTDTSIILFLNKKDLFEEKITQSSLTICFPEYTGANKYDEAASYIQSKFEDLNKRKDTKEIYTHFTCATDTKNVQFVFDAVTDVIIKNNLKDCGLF
UniProt Q8BWG9: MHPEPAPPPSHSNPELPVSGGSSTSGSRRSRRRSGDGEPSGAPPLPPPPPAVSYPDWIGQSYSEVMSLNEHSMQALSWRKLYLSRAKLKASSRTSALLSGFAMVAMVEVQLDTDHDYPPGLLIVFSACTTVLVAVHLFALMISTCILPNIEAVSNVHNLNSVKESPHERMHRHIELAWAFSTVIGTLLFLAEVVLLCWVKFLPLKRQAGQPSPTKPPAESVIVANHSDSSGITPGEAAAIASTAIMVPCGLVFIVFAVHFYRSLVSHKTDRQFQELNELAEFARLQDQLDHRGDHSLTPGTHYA

Key:
[1] = target: T1, CD20 (store-operated Ca2+ channel CD20) (mouse (endogenous in C2C12)) (UniProt P19437); experiment: co-IP; CD20 and IGF2R immunoprecipitates blotted for IGF2R and CD20, respectively; untreated and shCD20-treated C2C12 cell membranes and whole lysates; antibodies cross-linked to Dynabeads Protein G, 1% Nonidet P-40 buffer, overnight at 4°C
T1 sequence: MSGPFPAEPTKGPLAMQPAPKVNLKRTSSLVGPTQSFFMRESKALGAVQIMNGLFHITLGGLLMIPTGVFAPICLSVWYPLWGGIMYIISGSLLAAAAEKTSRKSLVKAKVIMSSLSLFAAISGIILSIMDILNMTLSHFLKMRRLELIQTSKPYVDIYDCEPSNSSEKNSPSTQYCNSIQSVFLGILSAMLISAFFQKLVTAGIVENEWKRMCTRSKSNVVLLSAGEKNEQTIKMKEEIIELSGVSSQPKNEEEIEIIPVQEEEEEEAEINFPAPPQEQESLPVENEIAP

[2] = target: type 2 IGF receptor (IGF2R) (mouse (endogenous in C2C12)) (UniProt Q07113); experiment: co-IP; IGF2R immunoprecipitates blotted for Gαi2; untreated, IGF2-treated, anti-IGF2R-treated and IGF2 + anti-IGF2R-treated C2C12 cells; antibody cross-linked to Dynabeads Protein G, 1% Nonidet P-40 buffer, overnight at 4°C
[3] = target: T1, CD20 (store-operated Ca2+ channel CD20) (mouse (endogenous in C2C12)); experiment: co-IP; CD20 immunoprecipitates blotted for ORAI1; untreated and store-depleted C2C12 cells; antibody cross-linked to Dynabeads Protein G, 1% Nonidet P-40 buffer, overnight at 4°C
[4] = target: T1, CD20 (store-operated Ca2+ channel CD20) (mouse (endogenous in C2C12)); experiment: co-IP; CD20 immunoprecipitates blotted for ORAI1; store-depleted + anti-IGF2R-treated C2C12 cells; antibody cross-linked to Dynabeads Protein G, 1% Nonidet P-40 buffer, overnight at 4°C

binding [1]: binds
Substance: type 2 IGF receptor (IGF2R) (from UniProt Q07113 36-2483)

binding [2]: binds
Substance: Gαi2 (from UniProt P08752 1-355)

binding [3]: binds
binding [4]: binds weakly
Substance: plasma membrane channel ORAI1 (from UniProt Q8BWG9 1-304)
